Data as given in PMC6994103 (PLoS Neglected Tropical Diseases, 2020).

System: VERO cells
Assay: Toxicity assay in VERO cells (gentian violet staining)
Type: cell-based, African green monkey
Conditions: IC50 in VERO cells / IC50 in trypomastigotes (Y strain)
Description: VERO cells (African green monkey Kidney, ATCC CCL-81) were cultured in MEM medium supplemented with 10% heat inactivated FCS, 0.15% (w/v) NaHCO3, 100 U/mL penicillin and 100 U/mL streptomycin at 37°C in 5% CO2.
The toxicity of the compounds was determined in VERO cells by the gentian violet staining assay. Briefly, the cells (1 x10^4 cells/well) were incubated in 96-well plates with the indicated compound or dimethyl sulfoxide (DMSO) as negative control and maintained at 37° C for 24 h. Then the cells were fixed for 15 min, and stained with 0.5% gentian violet. The absorbance was measured at 570 nm. The selectivity index (SI) was calculated for each CV analogue as the ratio between the IC50 obtained in mammalian cells and the IC50 in trypomastigotes. For the combined treatment, the results were presented as percentage of untreated cells.

Q: Which “Selectivity Index” value does the source give for `CCOC(=O)N1CCC(=C2c3ccc(Cl)cc3CCc3cccnc32)CC1` [Loratadine] here?
A: 5.5
